# Assay results as given in PubChem BioAssay AID1508600 (Functional Genomics Laboratory (NCATS/FGL), 2020).
# The campaign covered roughly 53,000 sequences. About 3,700 (7%) were called active.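 The calls were made as follows: active = gene knockdowns whose robust z-score for IL-1 alpha signal is at least 2 or at most -2, so actives lie on both sides; inactive = the rest.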 Some of the results follow.
# Experiment: Components of the Cytosolic LPS Sensing Pathway: Gene Identification via Genome-wide siRNA Screen;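 also: robust z of the log signal after scaling to non-targeting control siRNA wells of the plate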
# Details: RAW264.7 macrophages, IL-1a HTRF, actives lie on both sides, screened at 100 nM (by protocol), cells primed 5 h with Pam3CSK4 first
# In short: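 RAW264.7; siRNA 100 nM final, RNAiMAX, 48h 37 degrees C; Pam3CSK4 5 h; LipidA + TransIT-TKO 24 h; IL-1a HTRF; CellTiter-Glo viability; robust z vs negative-control median.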
row,Sequence,z-score
1,GGAUUACCCAUCCUACACATT against Eya4,inactive: 0.011
2,GGUUAACUUGAGCUCUGUGTT against Znrf4,inactive: -1.98
3,UUGUGAUUCCAAUUUCCCUTT against Olfr1330,inactive: -0.32
4,GGUAAAACUGUAGUGAUCGTT against Slfn4,inactive: -1.21
5,GCUACGUCACUUCUGUUUUTT against Acmsd,inactive: -0.0522
6,GCGAAUGGAUUGCUACAAUTT against Klhl7,inactive: 1.47
7,GCUCACAUUGAGUGGUUGGTT against Ncbp3,inactive: 0.542
8,GGGAGUCAUUCCCAAUGAUTT against Mras,inactive: 0.776
9,GCUGGUGAUUCCUAAACUGTT against Oprd1,inactive: -0.847
10,CCAAGAUUACUGAACCUACTT against Lin28a,inactive: 0.216
11,GGUGUUCCACAAGCAAUGGTT against Vmn1r234,inactive: -0.251
12,GCUUGGCCAUCAUUGGAGCTT against H2-Q6,inactive: 0.882
13,GGAACAUACUGCUAAUAUGTT against Brcc3,inactive: -0.202
14,GGAGACUUUUGAAAUAGAATT against C8a,inactive: -0.588
15,GGAAAGUGUCACCAAGUUCTT against Trav13-5,inactive: 0.0286
16,GCAAUGGCUGAAAUCCUCCTT against Dnmt3l,inactive: 1.49
17,GGAGGGACAUGAUUUUGAATT against Pfkfb2,active: 2.22
18,GGUGCUGAUUACAGUAGAATT against Pcdhga10,active: 2.01
19,GCUGGAUAAGAAUGGCGAUTT against S100g,inactive: 1.94
20,GGUGAACACCGUUCAGUUUTT against Wdr83,inactive: -0.396
21,GGUGAACUUGACCUCACAGTT against Sp1,inactive: -0.416
22,GCAUGUACGUCGCCUUGUUTT against Dctd,inactive: 0.242

row,Sequence,z-score
1,GGCUUACAGUCCUGAAUUUTT against Gpr17,inactive: 1.97
2,GCCUUUGCUGAGAUAACUUTT against Birc5,inactive: 0.6
3,GGGUCCCUAAGCAUGUUCCTT against Slfn10-ps,inactive: 0.618
4,GGUUCCAAGAACCCUCAUCTT against Swap70,inactive: -0.368
5,GCCACCCAGUUAUUUGAAATT against Dmac1,inactive: 0.913
6,CCAGCCUGAAAGAAGAGAATT against Ifna14,inactive: 0.116
7,CGAAUACUUGAUGUCCAUGTT against Harbi1,active: -2.16
8,GGCAGUAACUUAAAACAGATT against Mecp2,inactive: -0.139
9,CGUGGUUAAGUCACGACUGTT against Slc25a29,inactive: 0.7
10,CCGAUGGAGGUUCCUACUGTT against Cry2,inactive: -0.285
11,GCUAUUUGACUUGUUGUAATT against Rab30,inactive: 0.269
12,GGCAUUUGGGACUUGUGUGTT against Olfr78,inactive: -1.96
13,GGGACUUUGCCAAGAAUACTT against Klkb1,inactive: 0.0402
14,GGACAAACUCCGAGACUCCTT against Utf1,inactive: -0.339
15,CGCCUUAUAAUAUACCUAUTT against Clmp,inactive: 1.12
16,GCUGAAUGCCCAAUGCACUTT against Gabra1,inactive: -0.837
17,GGAAGAGAACCAAAACACATT against Zfp647,inactive: -0.77
18,GGUGGUAGUUAAUAAAGCUTT against Ctnnb1,inactive: -0.236
19,GGUUUUUGUGGCUGAUCUUTT against Zfp711,inactive: -0.545
20,GGUUAUGAUCGGCAUCGCUTT against Fam24a,inactive: -1.46
21,GGAAUUCAUGAAGUAUAACTT against Myo5c,inactive: 0.941
22,GCUGUGACUCUACUGGAGGTT against Zfp397,inactive: 0.746

row,Sequence,z-score
1,GCAGUCGAGAUCAAACAGGTT against Crabp2,inactive: -0.302
2,GGGUUUUCUAACAUUCAAATT against Pigm,inactive: -0.313
3,GGAAGAAGAAAAGAAAGACTT against Gphn,inactive: -0.472
4,GGAGACCGUAGUGUUCAUCTT against Lypd4,inactive: -0.107
5,GGCCAUGGCAGCUUAGAUUTT against St8sia1,inactive: 0.441
6,GGAAAUGUGCUUUAUUCGUTT against Tktl1,inactive: 1.75
7,CCUUUUUCGAAAAAUCAGGTT against Lyst,inactive: -0.39
8,GGCAAGUUCAAUAAAAUGUTT against Bik,inactive: 0.818
9,GGAUCUUCCAAGUUGUCUGTT against Srm,active: 2.42
10,CCACUGGUCAUUCUUGCUUTT against Olfr228,inactive: 0.248
11,GGUGGAUGAAGACUACAUCTT against Csnk2b,inactive: 1.35
12,CGACCUUAAGCUAAGCAGUTT against Aff3,inactive: 1.18
13,GGAGAAGAAAAAGAUUAUCTT against Atp6v1d,inactive: 1.07
14,GGAAGAGUGACCUUAAGUCTT against Arhgap30,active: 2.29
15,CGGUUCUCUAAAUGGCUCATT against Rhox12,inactive: -1.83
16,GGUGGAGUCAGUAUAAAUCTT against Yars2,inactive: 1.01
17,GGGUUCUCUAUAUCACAGGTT against Mrgpra3,inactive: 0.000381
18,CGCAGACGUACAAGUCUCATT against 1700018B24Rik,inactive: 0.157
19,GGUGACCUUGAACAAGCCCTT against Odf3,inactive: 0.977
20,GCCGGUCCUCUCUUACUACTT against Irs1,inactive: 0.385
21,CGAACACCGGUUACAAACUTT against Odf3b,inactive: 0.437
22,GGAGUCUUGGAAAAAAGGCTT against Rep15,inactive: -1.65

# Copied from the list:
# z-score, GGAAGAGUGACCUUAAGUCTT against Arhgap30 is entered as active: 2.29
# z-score, GGUGGAUGAAGACUACAUCTT against Csnk2b is entered as inactive: 1.35
# z-score, GCCGGUCCUCUCUUACUACTT against Irs1 is entered as inactive: 0.385

# Remaining list, next part.

row,Sequence,z-score
1,GGAAGAAUAUUGGCCCUGUTT against Il17rd,inactive: 0.0647
2,GGCAUUGACACAAGGGAUGTT against Olfr975,inactive: -0.319
3,CCCUCUGUGGUUAAAGACUTT against Tctex1d2,active: -2.88
4,GCGACGGCUUAUAUGGGUUTT against Lypd9,inactive: 1.25
5,GGGCUACUACAAUGAGUACTT against Phospho1,inactive: 0.412
6,GGUGUUACCAAGAGUGACUTT against Trp53i13,inactive: -0.653
7,CGAACCAGGAAAUGGAUUCTT against Crhbp,inactive: 0.598
8,GGUUACCAGUUAUAUGGCGTT against Mccc2,inactive: -0.601
9,AUUCGGGAAAAUUUUAGACTT against Rbfox3,inactive: -0.171
10,GCUGUGGAGAAGUGCUACUTT against Lce1b,inactive: -0.907
11,GCCAGGUGGAACCAAGUAUTT against Zcchc17,inactive: -1.67
12,GCGUUGAUUGUCCUCCUGATT against Cbarp,inactive: 0.127
13,GCAGUCAUCAAGGAUCAUUTT against Cyb5r4,inactive: 0.118
14,GAAGAUCUUUCCCAUGGGUTT against Psmb3,inactive: -0.972
15,GGUCUAGCUGCAUUGUUUGTT against Lgals8,inactive: 0.0629
16,CCUUCGACUAUUCUUACUGTT against Kif1c,inactive: -0.11
17,GGUGGAAUUUUUGUUUGAUTT against Skint2,inactive: 0.442
18,CCGAGAGGAUCGUAUAUCATT against Plcg1,inactive: -0.682
19,GACAUACACCUCACCUUGUTT against Hoxa6,inactive: -0.928
20,GGAUCGAGCCAAGAGCUGUTT against Rnd2,inactive: -0.105
21,CCAAUUUGUCAAAACAAUCTT against Slit2,inactive: 0.681
22,CGAACUCGAAUGCUAACGCTT against Nomo1,inactive: -1.52

# Copied from the listing for reference:
row,Sequence,z-score
8,GGUUACCAGUUAUAUGGCGTT against Mccc2,inactive: -0.601
9,AUUCGGGAAAAUUUUAGACTT against Rbfox3,inactive: -0.171

# Some of the entries so far, tab-delimited.
row	Sequence	z-score
10	GCUGUGGAGAAGUGCUACUTT against Lce1b	inactive: -0.907
11	GCCAGGUGGAACCAAGUAUTT against Zcchc17	inactive: -1.67

# The list goes on.

row,Sequence,z-score
1,GGACCAUAGAUAUUCUAGATT against Zfp709,inactive: -0.756
2,GCUCUUUAUAGGGUUCGGATT against Mgat5b,inactive: -0.036
3,GCUGACUCUUAGAUAAAUATT against Seh1l,inactive: -0.81
4,GGCUGCAUGUGCUCUGUUATT against Slfn9,inactive: 0.695
5,GGAAUCCUGGUGCUGAUUATT against Urm1,inactive: 1.6
6,GGAUCAGCUGUUGCCAGAGTT against Zfp384,inactive: 0.806
7,GUCCAGUAACAUGCAUGAGTT against Defb6,inactive: -0.419
8,GCCUGUUCGGUGUUCAACUTT against Etv3,inactive: 0.808
9,GGUCAAUCAGUUAUAAGCUTT against Psrc1,inactive: -0.592
10,GCACAGUGGUGUUAAAUAGTT against 2510009E07Rik,inactive: -0.79
11,GGAGAUCAGGCUGUUCACATT against Mei1,inactive: -0.172
12,GCUUAAGGUUAUUUGCUUGTT against Cct7,inactive: 0.301
13,GGAACAUCCAGUCUCUCACTT against Fbxo31,inactive: 0.244
14,GGACAAGGUGGAUAAAAGUTT against Cttn,inactive: 0.789
15,GGCAGACCCUGUGAAUAUATT against Ccn1,inactive: -1.99
16,GGUAGAUCCAGUGUUUACATT against Glt1d1,inactive: -0.17
17,ACAGAUUUUACUUUAACAUTT against Olfr1228,inactive: 1.54
18,GCAUGUCCCAUCAAUGGUCTT against Akr1d1,inactive: -0.0568
19,GGAUUUGAUGAUCUUUCCUTT against Pstk,inactive: 0.952
